{
  "source": "the supplement of paper PMC7125110",
  "parents": {"B1": {"name": "glmS ribozyme (parent)", "chain": "AUAAAAGCGCCAGAACUACAGAAAUGUAGUUGACGAGGAGGAGGUUUAUCGAAUUUUCGGCGGAUGCCUCCAAA"}},
  "note": "± gives the standard error. The uncertainty is large for many entries.",
  "data": [
    {"variants_of": "B1", "assay": "self-cleavage kobs at 640 uM GlcN6P; higher = faster cleavage; RNA array", "settings": "with glucosamine-6-phosphate", "method_in_brief": "(§1)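 The measurements used barcoded ribozyme variants on sequenced MiSeq chips, transcribed in situ by E. coli RNA polymerase and tracked at 37 °C with a hybridised Cy3 probe. Glucosamine-6-phosphate, 40 μM to 10 mM in HEPES/KCl/Mg(OAc)2 buffer, was flowed in while tiles were imaged over ~14 h. Baseline-normalised signals, also normalised to non-cleaving reference variants, gave per-tile medians that were fit to one- or two-exponential decays for kobs. kcat and KM resulted from weighted Michaelis–Menten fits across concentrations.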", "units": {"self-cleavage kobs at 640 uM GlcN6P": "s⁻¹"}, "values": [
      {"variant": "AUAAAAGCGCCAGACCUACAGAAAUGUAGUUGACGAGGAGGGGGUUUAUCGAAUUUUCGGCGGAUGCCUGCAAA", "self-cleavage kobs at 640 uM GlcN6P": "2.97e-05 ± 2e-05"},
      {"variant": "AUAAAAGCGCCAGACCUACAGAAAUGUAGUUGACGAGGAGGAGGUUUAUCGUAUUUUCGGCGGAUGCCUCCAAA", "self-cleavage kobs at 640 uM GlcN6P": "2.41e-05 ± 1.9e-05"},
      {"variant": "AUAAAAGCGCCAGACCUACAGAAAUGUAGUUGACGAGGAGGAGGUUUAUCGAAUUUUCGGCGGAUCCCUCCAAA", "self-cleavage kobs at 640 uM GlcN6P": "2.65e-05 ± 2.4e-05"},
      {"variant": "AUAAAAGCGCCAGACCUACAGAAAUGUAGACGACGAGGAGGAGGUUUUUCGAAUUUUCGGCGGAUGCCUCCAAA", "self-cleavage kobs at 640 uM GlcN6P": "2.3e-05 ± 2e-05"},
      {"variant": "AUAAAAGCGCCAGAGCUACAGAAAUGUAGUUGCCGAGGAGGAGGAUUAUCGAAUUUUCGGCGGAUGCCUCCAAA", "self-cleavage kobs at 640 uM GlcN6P": "3.15e-05 ± 1.7e-05"},
      {"variant": "AUAAAAGCGCCAGAGCUACAGAAAUGUAGUUGACGAGGAGGAGGUUUAUUGAAUUUUCGGCGGAUGCCUCCAAA", "self-cleavage kobs at 640 uM GlcN6P": "3.59e-05 ± 2.1e-05"},
      {"variant": "AUAAAAGCGCCAGAGCUACAGAAAUGUAUUUGACGAGGAGGAGGUUUAUGGAAUUUUCGGCGGAUGCCUCCAAA", "self-cleavage kobs at 640 uM GlcN6P": "3.1e-05 ± 2.4e-05"},
      {"variant": "AUAAAAGCGCCAGAGCUACAGAAAUGUAGUUAACGAGGAGGAGGUUUAUCGAAUUUUGGGCGGAUGCCUCCAAA", "self-cleavage kobs at 640 uM GlcN6P": "2.22e-05 ± 1.9e-05"},
      {"variant": "AUAAAAGCGCCAGAGCUACAGAAAUGUAGUUUACGAGGAGGAGGUUUAUCGAAUUUUCGGCGGAUGCCUCGAAA", "self-cleavage kobs at 640 uM GlcN6P": "2.89e-05 ± 1.8e-05"},
      {"variant": "AUAAAAGCGCCAGAGCUACAGAAAUGUAGUUGACGAUGAGGAGGUUUAUCGAAUUUUCGGAGGAUGCAUGCAAA", "self-cleavage kobs at 640 uM GlcN6P": "5.68e-05 ± 2.9e-05"},
      {"variant": "AUAAAAGCGCCAGAGCUACAGAAAUGUAGUUGACGAGUAGGAGGUUUAUCGAAUUUACGGCUGAUGCCACCAAA", "self-cleavage kobs at 640 uM GlcN6P": "0.000989 ± 0.00053"},
      {"variant": "AUAAAAGCGCCAGAUCUACAGAAAUGUAGUUGGCGAGGAGGAGGUUUAUCGAAUUUUCGGCGGAUGCCACCAAA", "self-cleavage kobs at 640 uM GlcN6P": "3.65e-05 ± 2e-05"},
      {"variant": "AUAAAAGCGCCAGAUCUACAGAAAUGUAGUUGACGAGGAGGAGGUUUAUCGUAUUUUCGGCGGAUGGCUCCAAA", "self-cleavage kobs at 640 uM GlcN6P": "4.6e-05 ± 2.3e-05"},
      {"variant": "AUAAAAGCGCCAGAUCUACAGAAAUGUAGUUGACGAGGAGGAGGUUUAUGGAUUAUUCGGCGGAUGCCUCCAAA", "self-cleavage kobs at 640 uM GlcN6P": "2.42e-05 ± 1.8e-05"},
      {"variant": "AUAAAAGCGCCAGAUCUACAGAAAUGUAGUUGACGAGGAGGAGGUUUAUUGAAUUUUCGGAGGAUGCCUCCAAA", "self-cleavage kobs at 640 uM GlcN6P": "3.44e-05 ± 3.1e-05"},
      {"variant": "AUAAAAGCGCCAGAUCUACAGAAAUGUAGUUGACGAGGAGGAGGUUUAUCGAAUUUUAGGCGGAUGCCUCCAAA", "self-cleavage kobs at 640 uM GlcN6P": "2.1e-05 ± 1.3e-05"},
      {"variant": "AUAAAAGCGCCAGAUCUACAGAAAUGUAGUUUACGAGGUGGAGGUUUAUCGAAUUUUCGGCGGAUGGCUCCAAA", "self-cleavage kobs at 640 uM GlcN6P": "2.28e-05 ± 2.2e-05"},
      {"variant": "AUAAAAGCGCCAGAUCUACAGAAAUGUAGUUGACUAGGAGGAGGUUUAUCGAAUUUUCGGCGGAAGACUCCAAA", "self-cleavage kobs at 640 uM GlcN6P": "4.41e-05 ± 2.2e-05"},
      {"variant": "AUAAAAGCGCCAGAUCUACAGAAAUGUAGUUGACGAGGAGGAGGUUUAUCGAAUUCGCGGCGAAUGCCUGCAAA", "self-cleavage kobs at 640 uM GlcN6P": "9.11e-05 ± 5.8e-05"},
      {"variant": "AUAAAAGCGCCAGAAAUACAGAAAUGUAGUUGACGAGGUGGAGGUUUAUCGAAUUUUCGGCGGAUGCCUCAAAA", "self-cleavage kobs at 640 uM GlcN6P": "2.9e-05 ± 2.6e-05"},
      {"variant": "AUAAAAGCGCCAGAAAUACAGAAAUGUAGUUGACGAGGAGGAGGUUUAUAGAAUUUUCGGCGGAUGCCUUCAAA", "self-cleavage kobs at 640 uM GlcN6P": "5.64e-05 ± 2.9e-05"},
      {"variant": "AUAAAAGCGCCAGAAAUACAGAAAUGUAGUUGACGAGGAGGAGGUUUAUGGAAUCUUCGGCGGAUGCCUCCAAA", "self-cleavage kobs at 640 uM GlcN6P": "0.000225 ± 0.00011"},
      {"variant": "AUAAAAGCGCCAGAAAUACAGAAAUGUAGUUGACGAGGAGGAGGUUUAUCGAAUUUUUGGCGGAUGCCUACAAA", "self-cleavage kobs at 640 uM GlcN6P": "4.98e-05 ± 3e-05"},
      {"variant": "AUAAAAGCGCCAGAAAUACAGAAAUGUAUUUGACGAGGAGGAGGUUUAUCGAAUUUUCGGCGGAUGCUUCUAAA", "self-cleavage kobs at 640 uM GlcN6P": "2.66e-05 ± 1.8e-05"},
      {"variant": "AUAAAAGCGCCAGAAAUACAGAAAUGUAGUUGACGAGGAUGAGGUUUAUCGAACUUUCGGCGGAUGCCUCUAAA", "self-cleavage kobs at 640 uM GlcN6P": "1.56e-05 ± 1e-05"},
      {"variant": "AUAAAAGCGCCAGAAAUACAGAAAUGUAGUUGACGAGGAGGAGGUAUAUCGAAUUUUCGGCGGAUGCCUCCAAA", "self-cleavage kobs at 640 uM GlcN6P": "3.83e-05 ± 2.2e-05"},
      {"variant": "AUAAAAGCGCCAGAAAUACAGAAAUGUAGUUGACGAGGAGGAGGUUUAUCGAAUUUACGGCGGAUGACUCCAAA", "self-cleavage kobs at 640 uM GlcN6P": "3.21e-05 ± 2.3e-05"},
      {"variant": "AUAAAAGCGCCAGAAGUACAGAAAUGUAGUUGACGAGGAGGAGGUUUAUUGACUUUUCGGCGGAUGCGUCCAAA", "self-cleavage kobs at 640 uM GlcN6P": "0.000352 ± 0.00018"}
    ]},
    {"variants_of": "B1", "assay": "self-cleavage kobs at 10000 uM GlcN6P; higher = faster cleavage; RNA array", "settings": "with glucosamine-6-phosphate", "method_in_brief": "as §1", "units": {"self-cleavage kobs at 10000 uM GlcN6P": "s⁻¹"}, "values": [
      {"variant": "AUAAAAGCGCCAGAGCUACAGAAAUGUAUUUGACGAGGAGGAGGUUUAUGGAAUUUUCGGCGGAUGCCUCCAAA", "self-cleavage kobs at 10000 uM GlcN6P": "3.2e-05 ± 2e-05"}
    ]},
    {"variants_of": "B1", "assay": "self-cleavage kobs at 2500 uM GlcN6P; higher = faster cleavage; RNA array", "settings": "with glucosamine-6-phosphate", "method_in_brief": "as §1", "units": {"self-cleavage kobs at 2500 uM GlcN6P": "s⁻¹"}, "values": [
      {"variant": "AUAAAAGCGCCAGAUCUACAGAAAUGUAGUUGGCGAGGAGGAGGUUUAUCGAAUUUUCGGCGGAUGCCACCAAA", "self-cleavage kobs at 2500 uM GlcN6P": "5.08e-05 ± 2.7e-05"},
      {"variant": "AUAAAAGCGCCAGAUCUACAGAAAUGUAGUUGACUAGGAGGAGGUUUAUCGAAUUUUCGGCGGAAGACUCCAAA", "self-cleavage kobs at 2500 uM GlcN6P": "2.07e-05 ± 1.7e-05"},
      {"variant": "AUAAAAGCGCCAGAAAUACAGAAAUGUAGUUGACGAGGAGGAGGUUUAUAGAAUUUUCGGCGGAUGCCUUCAAA", "self-cleavage kobs at 2500 uM GlcN6P": "3.96e-05 ± 2.6e-05"},
      {"variant": "AUAAAAGCGCCAGAAAUACAGAAAUGUAGUUGACGAGGAGGAGGUUUAUGGAAUCUUCGGCGGAUGCCUCCAAA", "self-cleavage kobs at 2500 uM GlcN6P": "9e-05 ± 5.7e-05"},
      {"variant": "AUAAAAGCGCCAGAAAUACAGAAAUGUAGUUGACGAGGAGGAGGUUUAUCGAAUUUACGGCGGAUGACUCCAAA", "self-cleavage kobs at 2500 uM GlcN6P": "2.86e-05 ± 2.6e-05"}
    ]},
    {"variants_of": "B1", "assay": "self-cleavage kobs at 160 uM GlcN6P; higher = faster cleavage; RNA array", "settings": "with glucosamine-6-phosphate", "method_in_brief": "as §1", "units": {"self-cleavage kobs at 160 uM GlcN6P": "s⁻¹"}, "values": [
      {"variant": "AUAAAAGCGCCAGAUCUACAGAAAUGUAGUUGACGAGGAGGAGGUUUAUGGAUUAUUCGGCGGAUGCCUCCAAA", "self-cleavage kobs at 160 uM GlcN6P": "0.000501 ± 0.00031"},
      {"variant": "AUAAAAGCGCCAGAUCUACAGAAAUGUAGUUGACUAGGAGGAGGUUUAUCGAAUUUUCGGCGGAAGACUCCAAA", "self-cleavage kobs at 160 uM GlcN6P": "4.13e-05 ± 2.3e-05"},
      {"variant": "AUAAAAGCGCCAGAAAUACAGAAAUGUAGUUGACGAGGAUGAGGUUUAUCGAACUUUCGGCGGAUGCCUCUAAA", "self-cleavage kobs at 160 uM GlcN6P": "1.93e-05 ± 1.6e-05"}
    ]}
  ]
}
